Data taken from the supplement of paper PMC3741180, “A Novel High Throughput Biochemical Assay to Evaluate the HuR Protein-RNA Complex Formation” (PLoS ONE, 2013).
This is one part of the list. This data set is noisy: repeats of one test often differ as much as different tests do.

Amino acid sequences for entries named in this document (tags omitted).
UniProt Q15717, whole entry: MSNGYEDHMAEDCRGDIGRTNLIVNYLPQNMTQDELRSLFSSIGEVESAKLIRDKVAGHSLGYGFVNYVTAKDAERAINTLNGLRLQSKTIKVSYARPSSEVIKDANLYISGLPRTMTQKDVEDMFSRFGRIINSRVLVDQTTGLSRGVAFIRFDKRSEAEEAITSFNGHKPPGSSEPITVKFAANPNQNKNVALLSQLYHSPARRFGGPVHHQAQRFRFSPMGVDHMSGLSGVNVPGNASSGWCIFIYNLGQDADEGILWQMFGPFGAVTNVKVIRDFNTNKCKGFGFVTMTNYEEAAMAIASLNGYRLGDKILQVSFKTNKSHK

These compounds were tested against HuR (ELAVL1) - TNFalpha ARE RNA complex (UniProt Q15717) (assay: AlphaScreen HuR-RNA complex signal Z-score relative to positive (Bi-TNF, DMSO) controls (Z-score (SD units of positive control)); higher = more complex signal). Conditions: screen stage: primary screen; compound concentration: 25 nM.
`NCCc1cc(O)c(O)cc1O` was tested, and the “AlphaScreen HuR-RNA complex signal Z-score” value was 5.35.
`C#CCOS(=O)OC1CCCCC1Oc1ccc(C(C)(C)C)cc1` (stereo unspecified) was tested, and the “AlphaScreen HuR-RNA complex signal Z-score” value was 2.69.
In the case of `CC(C)=CCC[C@]1(C)C=Cc2c(O)c3c(c(CC=C(C)C)c2O1)O[C@]12C(=C[C@@H]4C[C@H]1C(C)(C)O[C@@]2(C/C=C(/C)C(=O)O)C4=O)C3=O`, the “AlphaScreen HuR-RNA complex signal Z-score” value was 1.31.
With `C=C(C)c1cc2cc(C(C)=O)c(O)cc2o1` the “AlphaScreen HuR-RNA complex signal Z-score” value was 1.52.
`Cc1cc(OC(=O)N2CCCCC2)c(C(C)C)cc1[N+](C)(C)C` was tested, and the “AlphaScreen HuR-RNA complex signal Z-score” value was 1.62.
For `CC(C)OC(=O)Nc1cccc(Cl)c1`, the “AlphaScreen HuR-RNA complex signal Z-score” value was 0.79.
For `c1ccc2nc(N3CCNCC3)ccc2c1`, the “AlphaScreen HuR-RNA complex signal Z-score” value was 1.05.
For `C[N+](C)(C)CCCCCCCCCC[N+](C)(C)C`, the “AlphaScreen HuR-RNA complex signal Z-score” value was 2.04.
In the case of `C[N+]1(C)[C@@H]2CC[C@H]1C[C@@H](OC(=O)C(CO)c1ccccc1)C2` (stereo partly specified), the “AlphaScreen HuR-RNA complex signal Z-score” value was 1.71.
For `CN1C[C@H](C(=O)N[C@]2(C)O[C@@]3(O)[C@@H]4CCCN4C(=O)[C@H](Cc4ccccc4)N3C2=O)C[C@@H]2c3cccc4[nH]cc(c34)C[C@H]21`, the “AlphaScreen HuR-RNA complex signal Z-score” value was -3.56.
For `COc1cccc(C2(O)CCCCC2CN(C)C)c1` (stereo unspecified), the “AlphaScreen HuR-RNA complex signal Z-score” value was 1.21.
`CC(CCc1ccccc1)NC(C)C(O)c1ccc(O)cc1` (stereo unspecified) was tested, and the “AlphaScreen HuR-RNA complex signal Z-score” value was 4.71.
`COP(=S)(OC)Oc1ccc([N+](=O)[O-])cc1` was tested, and the “AlphaScreen HuR-RNA complex signal Z-score” value was 1.18.
For `N.N.[Cl][Pt][Cl]`, the “AlphaScreen HuR-RNA complex signal Z-score” value was 0.374.
In the case of `CCCN1C[C@H](CSC)C[C@@H]2c3cccc4[nH]cc(c34)C[C@H]21`, the “AlphaScreen HuR-RNA complex signal Z-score” value was 0.221.
`CC(C)N1C(=O)c2ccccc2NS1(=O)=O` was tested, and the “AlphaScreen HuR-RNA complex signal Z-score” value was -1.5.
For `c1ccc2c(c1)cc1ccc3cccc4ccc2c1c34`, the “AlphaScreen HuR-RNA complex signal Z-score” value was 0.0985.
In the case of `N#C/C(=C\c1ccc(O)cc1)C(=O)O` [alpha-CYANO-4-HYDROXYCINNAMIC ACID], the “AlphaScreen HuR-RNA complex signal Z-score” value was 2.42.
In the case of `CC(=O)Oc1ccc(/C=C/c2cc(OC(C)=O)cc(OC(C)=O)c2)cc1`, the “AlphaScreen HuR-RNA complex signal Z-score” value was 1.94.
`CC1=C(O)C(=O)C=C2C1=CC=C1[C@@]2(C)CC[C@@]2(C)[C@@H]3C[C@](C)(C(=O)O)CC[C@]3(C)CC[C@]12C` was tested, and the “AlphaScreen HuR-RNA complex signal Z-score” value was 1.99.
With `Cc1ncc(CNC(=O)N(CCCl)N=O)c(N)n1` the “AlphaScreen HuR-RNA complex signal Z-score” value was 1.55.
For `CCC12C=CCN3CC[C@@]4(c5ccc(OC)cc5N(C)[C@H]4[C@@](O)(C(=O)OC)[C@@H]1OC(C)=O)[C@@H]32` (stereo partly specified), the “AlphaScreen HuR-RNA complex signal Z-score” value was 0.06.
For `CN1CCCCC1c1ccc(-c2cccnc2)nc1` (stereo unspecified), the “AlphaScreen HuR-RNA complex signal Z-score” value was 0.763.
With `CCCCCCCCCc1ccc(O)cc1` the “AlphaScreen HuR-RNA complex signal Z-score” value was 2.8.
With `CNc1ccc(C(=O)CC(O)CCC(C)C2OC(=O)CC(O)CC(=O)CC(O)CC(O)CC(O)CC(O)CC3(O)CC(O)C(C(=O)OC)C(CC(O[C@@H]4O[C@H](C)[C@@H](O)[C@H](N)[C@@H]4O)/C=C/C=C/C=C/C=C/C=C/C=C/C=C/C2C)O3)cc1.COC(=O)C1C(O)CC2(O)CC(O)CC(O)CC(O)CC(O)CC(=O)CC(O)CC(=O)OC(C(C)CCC(O)CC(=O)c3ccc(N)cc3)C(C)/C=C/C=C/C=C/C=C/C=C/C=C/C=C/C(O[C@@H]3O[C@H](C)[C@@H](O)[C@H](N)[C@@H]3O)CC1O2` (stereo partly specified) the “AlphaScreen HuR-RNA complex signal Z-score” value was -1.67.
In the case of `CC(=O)O[C@H]1C[C@H](O[C@H]2[C@@H](O)C[C@H](O[C@H]3[C@@H](O)C[C@H](O[C@H]4CC[C@@]5(C)[C@H](CC[C@@H]6[C@@H]5C[C@@H](O)[C@]5(C)[C@@H](C7=CC(=O)OC7)CC[C@]65O)C4)O[C@@H]3C)O[C@@H]2C)O[C@H](C)[C@H]1O[C@@H]1O[C@H](CO)[C@@H](O)[C@H](O)[C@H]1O`, the “AlphaScreen HuR-RNA complex signal Z-score” value was 1.77.
With `COc1ccc(CCN2CCC(Nc3nc4ccccc4n3Cc3ccc(F)cc3)CC2)cc1` the “AlphaScreen HuR-RNA complex signal Z-score” value was 3.49.
`O=C1C=C2C(=CCOC2O)O1` (stereo unspecified) was tested, and the “AlphaScreen HuR-RNA complex signal Z-score” value was 1.32.
`CC1=C2[C@H]3OC(=O)[C@@H](C)[C@@H]3CC[C@@]2(C)C=CC1=O` was tested, and the “AlphaScreen HuR-RNA complex signal Z-score” value was 2.32.
In the case of `CCC(N)C(O)c1ccc(O)c(O)c1` (stereo unspecified), the “AlphaScreen HuR-RNA complex signal Z-score” value was 1.5.
With `Oc1cc(Cl)ccc1Oc1ccc(Cl)cc1Cl` the “AlphaScreen HuR-RNA complex signal Z-score” value was 2.39.
`O=C1CCCN1CC#CCN1CCCC1` was tested, and the “AlphaScreen HuR-RNA complex signal Z-score” value was 3.36.
`COc1ccc(Cc2nccc3cc(OC)c(OC)cc23)cc1OC` was tested, and the “AlphaScreen HuR-RNA complex signal Z-score” value was 2.72.
For `CCC1(CC)C(=O)C=CNC1=O`, the “AlphaScreen HuR-RNA complex signal Z-score” value was 2.86.
In the case of `O=C(NC(=O)c1c(F)cccc1F)Nc1cc(Cl)c(OC(F)(F)C(F)C(F)(F)F)cc1Cl` (stereo unspecified), the “AlphaScreen HuR-RNA complex signal Z-score” value was 2.6.
`COc1cc2c(cc1OC)[C@H](C)NCC2` was tested, and the “AlphaScreen HuR-RNA complex signal Z-score” value was 2.05.
With `COc1cc2c(cc1OC)[C@@]13CCN4CC5=CCO[C@H]6CC(=O)N2[C@H]1[C@H]6[C@H]5C[C@H]43` the “AlphaScreen HuR-RNA complex signal Z-score” value was -0.445.
With `COC(=O)C1=CCCN(C)C1` the “AlphaScreen HuR-RNA complex signal Z-score” value was 0.475.
For `C=C(C)[C@H]1Cc2c(ccc3c2O[C@@H]2COc4cc(OC)c(OC)cc4[C@@H]2C3=O)O1`, the “AlphaScreen HuR-RNA complex signal Z-score” value was 2.07.
In the case of `CCC1(c2ccc(N)cc2)CCC(=O)NC1=O` (stereo unspecified), the “AlphaScreen HuR-RNA complex signal Z-score” value was 0.32.
In the case of `C[C@@H](N)[C@@H](O)c1ccccc1`, the “AlphaScreen HuR-RNA complex signal Z-score” value was 1.35.
`NCCc1ccc(O)cc1` was tested, and the “AlphaScreen HuR-RNA complex signal Z-score” value was -1.58.
In the case of `CN(C)C(=O)Oc1cc(OC(=O)N(C)C)cc(C(O)CNC(C)(C)C)c1` (stereo unspecified), the “AlphaScreen HuR-RNA complex signal Z-score” value was 2.33.
With `CCn1cc(C(=O)O)c(=O)c2cc3c(cc21)OCO3` the “AlphaScreen HuR-RNA complex signal Z-score” value was 1.97.
With `C[C@]12CC[C@H](O)C[C@@H]1CC[C@@H]1[C@@H]2CC[C@]2(C)C(=O)CC[C@@H]12` the “AlphaScreen HuR-RNA complex signal Z-score” value was 1.46.
In the case of `C[N+]1(C)[C@@H]2C[C@@H](OC(=O)[C@H](CO)c3ccccc3)C[C@H]1[C@@H]1O[C@@H]12`, the “AlphaScreen HuR-RNA complex signal Z-score” value was 7.22.
For `CO[C@H]1C[C@H](O[C@H]2CC[C@]3(C=O)[C@H]4CC[C@]5(C)[C@@H](C6=CC(=O)OC6)CC[C@]5(O)[C@@H]4CC[C@]3(O)C2)O[C@H](C)[C@H]1O`, the “AlphaScreen HuR-RNA complex signal Z-score” value was -4.93.
With `CC1(C)C2C[C@@H](O)[C@]3(C)C(CC[C@@]4(C)[C@H](c5ccoc5)OC(=O)[C@H]5O[C@]543)[C@@]2(C)[C@@H](O)C[C@H]1O` (stereo partly specified) the “AlphaScreen HuR-RNA complex signal Z-score” value was 2.66.
With `C[C@@H]1O[C@@H](O[C@H]2C[C@@H](O)[C@]3(CO)[C@H]4[C@H](O)C[C@]5(C)[C@@H](C6=CC(=O)OC6)CC[C@]5(O)[C@@H]4CC[C@]3(O)C2)[C@H](O)[C@H](O)[C@H]1O` the “AlphaScreen HuR-RNA complex signal Z-score” value was 0.858.
In the case of `COc1ccc2c3c([nH]c2c1)C(C)=NCC3`, the “AlphaScreen HuR-RNA complex signal Z-score” value was 1.26.
In the case of `c1cncc(C2=NCCC2)c1`, the “AlphaScreen HuR-RNA complex signal Z-score” value was 1.06.
With `Cc1nccc2c1[nH]c1ccccc12` the “AlphaScreen HuR-RNA complex signal Z-score” value was 2.02.
In the case of `C[C@]12C=CC(=O)C=C1CC[C@@H]1[C@@H]2CC[C@]2(C)C(=O)CC[C@@H]12`, the “AlphaScreen HuR-RNA complex signal Z-score” value was 1.1.
For `CCN1C[C@]2(OC(=O)c3ccccc3NC(C)=O)CC[C@H](OC)[C@@]34[C@@H]2C[C@@H]([C@@H]13)[C@@]1(O)C[C@H](OC)[C@H]2C[C@@H]4[C@]1(O)[C@H]2OC`, the “AlphaScreen HuR-RNA complex signal Z-score” value was 1.74.
In the case of `CC(=O)CC1CCCCN1` (stereo unspecified), the “AlphaScreen HuR-RNA complex signal Z-score” value was 1.68.
In the case of `CCN1C[C@]2(COC)[C@H](O)C[C@H](OC)[C@@]34[C@@H]5C[C@@]6(O)[C@H](OC(=O)c7ccccc7)[C@@H]5[C@@](OC(C)=O)([C@@H]([C@H](OC)[C@H]23)[C@@H]14)[C@@H](O)[C@@H]6OC`, the “AlphaScreen HuR-RNA complex signal Z-score” value was -0.312.
